In patent publication US20100098632A1, “HYDROXYAPATITE PARTICLES” (priority 2006, published 2010):
Some results were stated once for a whole list of compounds, not compound by compound.

Assay type: physicochemical
Settings: summary statement

O=P([O-])([O-])C(Cl)(Cl)P(=O)(O)O.[Na+].[Na+] [clodronate, dichloromethylenediphosphonic acid disodium salt]
time for efficient loading onto hydroxyapatite particles: ≤ 15 min
